No constants are given. Whether binding was seen depends on the method and setting. Some entries that bind do so weakly or less than the wild type.
target: human GPC3 (GPC3 antigen coated for panning and ELISA) (human) (UniProt P51654); experiment: ELISA, clone culture supernatant on GPC3-coated plate

Chains of the proteins cited; added tags and fusions are not shown. Lines headed by an entry give the natural chain unless they say otherwise; changes in a name come on top.
UniProt P51654: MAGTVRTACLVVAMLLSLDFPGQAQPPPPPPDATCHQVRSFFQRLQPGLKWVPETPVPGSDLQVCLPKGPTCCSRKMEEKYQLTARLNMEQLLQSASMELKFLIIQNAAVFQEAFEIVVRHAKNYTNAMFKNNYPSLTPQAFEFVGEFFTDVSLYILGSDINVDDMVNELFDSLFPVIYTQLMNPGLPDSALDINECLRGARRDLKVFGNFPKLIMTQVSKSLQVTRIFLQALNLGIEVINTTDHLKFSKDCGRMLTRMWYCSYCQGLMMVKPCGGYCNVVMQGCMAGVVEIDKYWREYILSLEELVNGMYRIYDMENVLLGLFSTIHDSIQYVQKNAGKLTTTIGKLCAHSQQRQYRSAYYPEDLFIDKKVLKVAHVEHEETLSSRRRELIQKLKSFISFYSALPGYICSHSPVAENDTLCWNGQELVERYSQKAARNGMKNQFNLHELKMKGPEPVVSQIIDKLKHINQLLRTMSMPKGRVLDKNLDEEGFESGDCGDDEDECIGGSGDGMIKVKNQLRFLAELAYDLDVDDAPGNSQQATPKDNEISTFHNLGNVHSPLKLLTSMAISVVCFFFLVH

Row | binding | Binder
1 | binds | clone GX197 (scFv, V domains shown) VH: QVQLVQSGAEVKKPGASVKVSCKASGYTFTSYGISWVRQAPGQGLEWMGWISAYNGNTNYAQKLQGRVTMTTDTSTSTAYMELRSLRSDDTAVYYCASQGSGWLDYWGQGTLVTVSS VL: NFMLTQPHSVSESPGKTVTISCTGSGGNIASNYVQWFQQRPGSAPTTVIYDDVQRPSGVPNRFSGSIDSSSNSASLSISGLKTEDEADYYCQSYDRTYRGVFGGGTKLTVLG
2 | binds | clone GX201 (scFv, V domains shown) VH: QVQLVESGGGLVNPGGSLRLSCAASGFTFSNYGMNWVRQAPGKGLEWVSSISTRSGYIFYADSVKGRFTISRDNAKNSLYLQMNSLRAEDTAVYYCARDRPNRSGMDVWGQGTTVTVSS VL: QSALTQPASVSGSPGQSITISCTGTSSDVGGYNYVSWYQQHPGKAPKLMIYDVSNRPSGVSNRFSGSKSGNTASLTISGLQAEDEGDYYCSSYTSSDTLVFGSGTKVTVLG
3 | binds | clone GX122 (scFv, V domains shown) VH: EVQLVESGAEVKKPGASVKVSCKASGYTFTSYYMHWVRQAPGQGLEWMGIINPSGGSTSYAQKFQGRVTMTRDTSTSTVYMELSSLRSEDTAVYYCARDGGSSPDIWGQGTMVTVSS VL: SYELTQPPSVSVSPGQTARITCSGDALPKKYAYWYQQKSGQAPVLVIYEDKKRPSEIPERFSGSSSGTMATLTITGAQVDDEADYYCYSIDRSGSRGVFGGGTKLTVLG
4 | binds | clone GX184 (scFv, V domains shown) VH: QLQLQESGPGLVKPSETLSLTCAVSGGSISSSNNYWGWIRQPPGKGLEWIGSIFYSGSTYYNPSLKSRVTISVDTSKNQFSLKLSSVTAADTAVYYCARLPTGTPGFYFDYWGQGTLVTVSS VL: SYELTQPPSVSKGLRQTATLTCTGNSNNVGNQGAAWLQQHQGHPPKLLSYRNNNRPSGISERFSASRSGNTASLTITGLQPEDEADYYCSAWDSSLSAWVFGGGTKLTVLG
5 | binds | clone GX189 (scFv, V domains shown) VH: QLQLQESGPGLVKPSETLSLTCAVSGGSISSSNNYWGWIRQPPGKGLEWIGSIFYSGSTYYNPSLKSRVTISVDTSKNQFSLKLSSVTAADTAVYYCARLPTGTPGFYFDYWGQGTLVTVSS VL: SYVLTQPPSVSKGLRQTATLTCTGNSSNVGNQGAAWLQQHQGHPPKLLSYRNNNRPSGISERFSASRSGNTASLTITGLRPEDEADYYCSAWDSSLSAWVFGGGTKLTVLG
6 | binds | clone GX090 (scFv, V domains shown) VH: QVQLVQSGAEVKKPGASVKVSCKASGYTFTSYGISWVRQAPGQGLEWMGWISAYNGNTNYAQKLQGRVTMTTDTSTSTAYMELRSLRSDDTAVYYCARGSSFSGFDPWGQGTLVTVSS VL: QSVLTQPPSLSAAPGQKVTISCSGSSSNIGKNHVSWYQQFPGTAPKFLIYDNHRRPSGIPDRFSGSKSGTSATLDITGLQTGDEATYYCGTWDSSLSAVVFGGGTKLTVLG
7 | binds | clone GX207 (scFv, V domains shown) VH: EVQLVQSGAEVKKPGASVKVSCKASGYTFTSYGISWVRQAPGQGLEWMGWISAYNGNTNYAQKLQGRVTMTTDTSTSTAYMELRSLRSDDTAVYYCAREGIAAAGYYYGMDVWGQGTTVTVSS VL: QSALTQPPSVSGSPGQSVTISCTGTSSDVGGYNRVSWYQQPPGTAPKLMIYEVSNRPSGVPDRFSGSKSGNTASLTISGLQAEDEADYYCSSYTSSTTYVFGTGTKVTVLG
8 | binds | clone GX206 (scFv, V domains shown) VH: QLQLQESGPGLVKPSETLSLTCTVSGGSISSSSYYWGWIRQPPGKGLEWIGSIYYSGSTYYNPSLKSRVTISVDTSKNQFSLKLSSVTAADTAVYYCARLGDYGGNGYYFDYWGQGTLVTVSS VL: QSVLTQPPSVSAASGQKVTVSCSGSSSNIGKNGVSWHQQLPGTAPKLLIYENNRRPSEIPDRFSGSKSGTSATLAITGLQTGDEADYYCGTWDSSLNAGVFGTGTKVTVLG
